The text below walks through data of US20100278837A1 (University of California, published 2010).

Protein sequences, listed by entry. Tags and fused reporters are not part of them. Chains listed by the source or under a name are the forms on record and can include a tag or linker. Residues count along the entry.
UniProt Q00651, other isoform, or with tags, fused parts or gaps, chain 1 of 2: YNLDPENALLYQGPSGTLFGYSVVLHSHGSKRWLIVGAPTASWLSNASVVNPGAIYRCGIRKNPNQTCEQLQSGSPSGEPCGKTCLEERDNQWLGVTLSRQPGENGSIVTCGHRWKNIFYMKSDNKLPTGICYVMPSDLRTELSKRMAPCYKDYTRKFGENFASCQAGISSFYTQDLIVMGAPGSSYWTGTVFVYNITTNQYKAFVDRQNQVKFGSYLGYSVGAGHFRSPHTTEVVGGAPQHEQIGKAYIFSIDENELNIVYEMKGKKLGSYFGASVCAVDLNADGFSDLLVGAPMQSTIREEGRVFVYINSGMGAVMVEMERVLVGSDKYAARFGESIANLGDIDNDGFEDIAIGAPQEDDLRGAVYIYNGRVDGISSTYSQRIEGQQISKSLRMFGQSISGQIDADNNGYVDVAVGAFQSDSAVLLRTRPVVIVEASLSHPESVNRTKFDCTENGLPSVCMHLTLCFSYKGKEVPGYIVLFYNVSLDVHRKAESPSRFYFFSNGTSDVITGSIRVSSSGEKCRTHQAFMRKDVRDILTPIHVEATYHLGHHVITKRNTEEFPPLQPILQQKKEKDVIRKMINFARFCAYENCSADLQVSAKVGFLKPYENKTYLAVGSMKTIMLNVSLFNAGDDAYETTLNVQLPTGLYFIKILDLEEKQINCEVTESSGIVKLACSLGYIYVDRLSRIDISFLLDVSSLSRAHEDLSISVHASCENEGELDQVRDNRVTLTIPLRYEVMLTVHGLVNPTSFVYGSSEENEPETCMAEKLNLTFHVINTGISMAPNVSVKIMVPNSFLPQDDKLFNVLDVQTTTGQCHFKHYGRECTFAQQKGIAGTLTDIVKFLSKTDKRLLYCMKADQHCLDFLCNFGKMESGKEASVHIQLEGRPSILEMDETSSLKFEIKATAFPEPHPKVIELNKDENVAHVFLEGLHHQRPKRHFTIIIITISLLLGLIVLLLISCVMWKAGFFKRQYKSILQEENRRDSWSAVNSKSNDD
murine integrin α4Y991A β1 of CD11b+ myeloid cells from α4Y991A knockin mice, UniProt P09055, 21-798, chain 2 of 2: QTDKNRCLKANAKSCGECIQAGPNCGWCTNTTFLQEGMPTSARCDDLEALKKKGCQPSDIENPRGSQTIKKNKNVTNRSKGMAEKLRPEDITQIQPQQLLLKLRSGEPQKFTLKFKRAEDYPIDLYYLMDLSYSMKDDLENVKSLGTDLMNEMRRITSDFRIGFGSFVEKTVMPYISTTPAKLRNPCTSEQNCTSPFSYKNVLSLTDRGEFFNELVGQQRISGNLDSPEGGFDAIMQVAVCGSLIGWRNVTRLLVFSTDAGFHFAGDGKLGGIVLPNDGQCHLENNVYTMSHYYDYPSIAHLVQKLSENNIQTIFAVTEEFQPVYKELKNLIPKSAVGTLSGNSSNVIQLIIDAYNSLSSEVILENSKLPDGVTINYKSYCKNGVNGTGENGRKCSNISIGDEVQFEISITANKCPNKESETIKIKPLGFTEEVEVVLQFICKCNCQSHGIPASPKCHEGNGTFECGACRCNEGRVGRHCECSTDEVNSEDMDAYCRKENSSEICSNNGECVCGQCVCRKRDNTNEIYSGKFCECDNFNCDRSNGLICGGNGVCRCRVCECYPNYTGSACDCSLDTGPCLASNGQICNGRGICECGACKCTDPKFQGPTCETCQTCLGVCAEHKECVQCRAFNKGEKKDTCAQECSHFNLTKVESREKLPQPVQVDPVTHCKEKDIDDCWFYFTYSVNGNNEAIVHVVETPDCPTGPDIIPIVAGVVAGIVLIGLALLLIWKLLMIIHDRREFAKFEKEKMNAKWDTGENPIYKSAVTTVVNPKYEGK

For the experiment, the target named is T1, murine integrin α4Y991A β1 of CD11b+ myeloid cells from α4Y991A knockin mice (mouse, UniProt Q00651 41-1039; P09055 21-798).
T1 construct: whole, on cells; It may be mature-chain numbering and may not match the precursor entry; also called α4YA; YA
The experiment can be described thus: co-immunoprecipitation with PS/2, immunoblot (FIG. 3d). How it is done: BM monocytic cells from WT or α4Y991A mice were isolated as described above and treated with either DMEM or TCM for 30 min at 37° C. Cells were rinsed with cold PBS and lysed in Tris-buffered saline containing 1% CHAPS, 20 mM β-glycerophosphate, 1 mM Na₃VO₄, 5 mM NaF, 100 ng/ml microcystin-LR, and protease inhibitor cocktail. Clarified cell lysates were immunoprecipitated as follows: 1 mg total protein was precleared with 10 μl protein G-conjugated Dynabeads (Invitrogen) for 1 hr with rotation. Cleared lysates were incubated with 5 μg of rat anti-α4β1 (PS/2) antibody overnight, followed by adding 25 μl of protein G-conjugated Dynabeads for 3 h with rotation. Beads were washed three times with 1 ml cold PBS containing protease inhibitor cocktail. Protein precipitates were electrophoresed on 10% SDS-PAGE gels and immunoblotted with anti-integrin α4 (C-20, Santa Cruz Biotechnology), anti-talin (Clone TD77, Chemicon) or anti-paxillin (H-114, Santa Cruz Biotechnology) antibodies. Immune complexes were visualized using an enhanced chemiluminescence detection kit (Pierce).
BM cells (comprised of 80% CD11b+Gr1+ cells) from WT or α4Y991A mice were isolated as described above and treated with either DMEM or TCM for 30 min at 37° C. […]

B1: paxillin (murine, endogenous in bone marrow derived myeloid cells) (other, mouse, UniProt Q8VI36 1-591, looked up)
chain: MDDLDALLADLESTTSHISKRPVFLSEEPPYSYPTGNHTYQEIAVPPPVPPPPSSEALNGTVLDPLDQWQPSGSRYAHQQPPSPLPVYSSSAKNSSASNTQDGVGSLCSRAGEEEHVYSFPNKQKSAEPSPTVMSSSLGSNLSELDRLLLELNAVQHSPPGFPADEAESSPPLPGALSPLYGIPENNTPLGGKAGPLVKEKPKRNGGRGLEDVRPSVESLLDELESSVPSPVPAITVNQGEMSSPQRVTSSQQQTRISASSATRELDELMASLSDFKMQGLEQRVDGERPWAAGWPPSSRQSSPEGQDEGGFMAQGKTGSSSPPGGLSKPGSQLDSMLGSLQSDLNKLGVATVAKGVCGACKKPIAGQVVTAMGKTWHPEHFVCTHCQEEIGSRNFFERDGQPYCEKDYHSLFSPRCYYCNGPILDKVVTALDRTWHPEHFFCAQCGAFFGPEGFHEKDGKAYCRKDYFDMFAPKCGGCARAILENYISALNTLWHPECFVCRECFTPFVNGSFFEHDGQPYCEVHYHERRGSLCSGCQKPITGRCITAMAKKFHPEHFVCAFCLKQLNKGTFKEQNDKPYCQSCFVKLFC
notes: Detected by immunoblot with anti-paxillin H-114
As to B1, the binding result was “no binding”.
